Experimental data: PubChem BioAssay AID1224828 (NIAID, 2016)
Shown is a random part of about 17,000 reagents tested. 762 of them (4.5%) were called active. 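Active calls include both raised and lowered p65 entry, mostly lowered; wells with fewer than 50 cells lack a z-score.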 Raw values are not corrected between plates.

Screen: 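Knock-downs that increase or decrease LPS-induced p65 nuclear translocation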 (primary screen)
Cell system: mouse RAW264.7 G9 macrophage reporter cells (GFP-p65, Tnf promoter-mCherry)
Reagents: siRNA pool against mouse genes, 100 nM
Timing: 2 days siRNA transfection, then 40 min LPS before fixation
Conditions: LPS (Salmonella minnesota R595) at 10 ng/ml
Measured: 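Imaged p65 nuclear translocation ratio, normalised to the plate median, converted to robust z-scores and averaged across two replicates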
Scale: p65 translocation robust z-score: higher = more nuclear NF-kappaB p65 after LPS than the plate median; nuclear/cytoplasmic p65 ratio: higher = more nuclear NF-kappaB p65
Call rule: 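Called active when z exceeds 3.3 or falls under -1.56 (median of Tlr4 controls), giving activity score of at least 50; no calls for control wells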
Meaning of the calls: active = hit (p65 shift raised or lowered); inactive = no clear change

The first 2 records, to show the layout:
{"gene":"Csnk2a2ip (GeneID 224291)","p65 translocation robust z-score":2.03,"nuclear/cytoplasmic p65 ratio, rep 1":1.86,"nuclear/cytoplasmic p65 ratio, rep 2":2.16,"low cell count flag":"enough cells to score","Outcome":"inactive"}
{"gene":"Vps35 (GeneID 65114)","p65 translocation robust z-score":1.42,"nuclear/cytoplasmic p65 ratio, rep 1":1.53,"nuclear/cytoplasmic p65 ratio, rep 2":1.42,"low cell count flag":"enough cells to score","Outcome":"inactive"}

Results, from the start:
{"gene":"Csnk2a2ip (GeneID 224291)","p65 translocation robust z-score":2.03,"nuclear/cytoplasmic p65 ratio, rep 1":1.86,"nuclear/cytoplasmic p65 ratio, rep 2":2.16,"low cell count flag":"enough cells to score","Outcome":"inactive"}
{"gene":"Vps35 (GeneID 65114)","p65 translocation robust z-score":1.42,"nuclear/cytoplasmic p65 ratio, rep 1":1.53,"nuclear/cytoplasmic p65 ratio, rep 2":1.42,"low cell count flag":"enough cells to score","Outcome":"inactive"}
{"gene":"Slc25a15 (GeneID 18408)","p65 translocation robust z-score":-0.84,"nuclear/cytoplasmic p65 ratio, rep 1":1.44,"nuclear/cytoplasmic p65 ratio, rep 2":1.36,"low cell count flag":"enough cells to score","Outcome":"inactive"}
{"gene":"H2-Q1 (GeneID 15006)","p65 translocation robust z-score":0.31,"nuclear/cytoplasmic p65 ratio, rep 1":1.47,"nuclear/cytoplasmic p65 ratio, rep 2":1.42,"low cell count flag":"enough cells to score","Outcome":"inactive"}
{"gene":"Fhl5 (GeneID 57756)","p65 translocation robust z-score":-0.07,"nuclear/cytoplasmic p65 ratio, rep 1":1.38,"nuclear/cytoplasmic p65 ratio, rep 2":1.41,"low cell count flag":"enough cells to score","Outcome":"inactive"}
{"gene":"Oxtr (GeneID 18430)","p65 translocation robust z-score":-1.91,"nuclear/cytoplasmic p65 ratio, rep 1":1.24,"nuclear/cytoplasmic p65 ratio, rep 2":1.23,"low cell count flag":"enough cells to score","Outcome":"active"}
{"gene":"St7l (GeneID 229681)","p65 translocation robust z-score":-0.87,"nuclear/cytoplasmic p65 ratio, rep 1":1.47,"nuclear/cytoplasmic p65 ratio, rep 2":1.38,"low cell count flag":"enough cells to score","Outcome":"inactive"}
{"gene":"Ip6k3 (GeneID 271424)","p65 translocation robust z-score":-0.99,"nuclear/cytoplasmic p65 ratio, rep 1":1.56,"nuclear/cytoplasmic p65 ratio, rep 2":1.24,"low cell count flag":"enough cells to score","Outcome":"inactive"}
{"gene":"Selenov (GeneID 280621)","p65 translocation robust z-score":0.59,"nuclear/cytoplasmic p65 ratio, rep 1":1.78,"nuclear/cytoplasmic p65 ratio, rep 2":1.65,"low cell count flag":"enough cells to score","Outcome":"inactive"}
{"gene":"Cdk5r1 (GeneID 12569)","p65 translocation robust z-score":0.51,"nuclear/cytoplasmic p65 ratio, rep 1":1.74,"nuclear/cytoplasmic p65 ratio, rep 2":1.47,"low cell count flag":"enough cells to score","Outcome":"inactive"}
{"gene":"Mkx (GeneID 210719)","nuclear/cytoplasmic p65 ratio, rep 1":1.24,"nuclear/cytoplasmic p65 ratio, rep 2":1.46,"low cell count flag":"fewer than 50 cells per well; well left out of scoring","Outcome":"inactive"}
{"gene":"Zfp451 (GeneID 98403)","p65 translocation robust z-score":-0.01,"nuclear/cytoplasmic p65 ratio, rep 1":1.54,"nuclear/cytoplasmic p65 ratio, rep 2":1.25,"low cell count flag":"enough cells to score","Outcome":"inactive"}
{"gene":"Gpx3 (GeneID 14778)","p65 translocation robust z-score":1.98,"nuclear/cytoplasmic p65 ratio, rep 1":2.06,"nuclear/cytoplasmic p65 ratio, rep 2":1.72,"low cell count flag":"enough cells to score","Outcome":"inactive"}
{"gene":"Syt9 (GeneID 60510)","nuclear/cytoplasmic p65 ratio, rep 1":1.24,"nuclear/cytoplasmic p65 ratio, rep 2":1,"low cell count flag":"fewer than 50 cells per well; well left out of scoring","Outcome":"inactive"}
{"gene":"Itga7 (GeneID 16404)","p65 translocation robust z-score":1.84,"nuclear/cytoplasmic p65 ratio, rep 1":1.68,"nuclear/cytoplasmic p65 ratio, rep 2":1.66,"low cell count flag":"enough cells to score","Outcome":"inactive"}
{"gene":"Rpl13a (GeneID 22121)","p65 translocation robust z-score":-1.09,"nuclear/cytoplasmic p65 ratio, rep 1":1.37,"nuclear/cytoplasmic p65 ratio, rep 2":1.29,"low cell count flag":"enough cells to score","Outcome":"inactive"}
{"gene":"Psmd4 (GeneID 19185)","p65 translocation robust z-score":-0.65,"nuclear/cytoplasmic p65 ratio, rep 1":1.41,"nuclear/cytoplasmic p65 ratio, rep 2":1.32,"low cell count flag":"enough cells to score","Outcome":"inactive"}
{"gene":"Thap3 (GeneID 69876)","nuclear/cytoplasmic p65 ratio, rep 1":1.35,"nuclear/cytoplasmic p65 ratio, rep 2":1.14,"low cell count flag":"fewer than 50 cells per well; well left out of scoring","Outcome":"inactive"}
{"gene":"Alg5 (GeneID 66248)","p65 translocation robust z-score":-0.04,"nuclear/cytoplasmic p65 ratio, rep 1":1.54,"nuclear/cytoplasmic p65 ratio, rep 2":1.74,"low cell count flag":"enough cells to score","Outcome":"inactive"}
{"gene":"Or4k45 (GeneID 258398)","p65 translocation robust z-score":0.35,"nuclear/cytoplasmic p65 ratio, rep 1":1.58,"nuclear/cytoplasmic p65 ratio, rep 2":1.54,"low cell count flag":"enough cells to score","Outcome":"inactive"}
{"gene":"Fgf16 (GeneID 80903)","p65 translocation robust z-score":-0.51,"nuclear/cytoplasmic p65 ratio, rep 1":1.29,"nuclear/cytoplasmic p65 ratio, rep 2":1.38,"low cell count flag":"enough cells to score","Outcome":"inactive"}
